Laboratory results: PMC4884984, “Identification of approved and investigational drugs that inhibit hypoxia-inducible factor-1 signaling” (Oncotarget, 2016)

Tested on: HIF-1α–NanoLuc
Assay: HIF-1α–NanoLuc reporter gene assay (qHTS primary and confirmatory screens)
Format: cell-based
Conditions: Homo sapiens; Table S2; primary screen; read-out: Pathway inhibitors (primary screen) HIF-1α–NanoLuc Activity IC50

## Cc1ccc(NC(=O)c2ccc(CN3CCN(C)CC3)cc2)cc1Nc1nccc(-c2cccnc2)n1 [Imatinib]
  IC50: 33.5 µM
